Data as given in PubChem BioAssay AID1224826 (NIAID, 2016)
Aim: 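Knock-downs that raise or lower Tnf reporter signal after endotoxin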 (primary screen). System: RAW264.7 G9 macrophages from mouse bearing reporters for p65 (GFP) and the Tnf promoter (mCherry). Reagents: siRNA pool against mouse genes, 100 nM. Time to read-out: 16 h of LPS stimulation, after 2 days of siRNA transfection. Treatment: bacterial lipopolysaccharide (Salmonella minnesota R595), 10 ng/ml. Measured: 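Nuclear mCherry signal of the Tnf promoter reporter measured by imaging after background removal, scaled to each plate median and turned into robust z-scores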. Direction: Tnf reporter robust z-score: higher = stronger Tnf promoter reporter signal after LPS. Call rule: 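a well counts as active at a score of -1.3 or below (Tlr4 knock-down control median) or above 3 (raised signal); controls and wells holding fewer than 50 cells are excluded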. Calls: active = Tnf reporter clearly lowered or raised; inactive = no clear change in Tnf reporter.
Here is an unselected part of about 17,000 reagents tested. Of all reagents, about 1,110 (6.6%) are marked active. 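Active means lowered or raised reporter signal; replicate intensities are raw and not normalised per plate.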 Further read-outs or replicates are left out here.

Map2k7 (mitogen-activated protein kinase kinase 7) showed fewer than 50 cells in well fewer than 50 cells per well; well left out of calls; inactive. Silencing of Dmc1 (DNA meiotic recombinase 1) gave: Tnf reporter robust z-score -0.21; fewer than 50 cells in well enough cells in well; inactive. Catsper1 (cation channel, sperm associated 1) showed Tnf reporter robust z-score 0.55; fewer than 50 cells in well enough cells in well; inactive. After knock-down of Rbp1 (retinol binding protein 1, cellular) the results were Tnf reporter robust z-score 2.37; fewer than 50 cells in well enough cells in well; inactive. For Pnmt (phenylethanolamine-N-methyltransferase), the values are Tnf reporter robust z-score 0.9; fewer than 50 cells in well enough cells in well; inactive. With knock-down of Fbxl12os (F-box and leucine-rich repeat protein 12, opposite strand), the record shows Tnf reporter robust z-score 1.57; fewer than 50 cells in well enough cells in well; inactive.

For Hoxc13 (homeobox C13), the entry reads Tnf reporter robust z-score -0.04; fewer than 50 cells in well enough cells in well; inactive. Against Timm8a1 (translocase of inner mitochondrial membrane 8A1), the entry reads Tnf reporter robust z-score 1.73; fewer than 50 cells in well enough cells in well; inactive.

Just “Tnf reporter robust z-score”, for 2 of the entries above:
Hoxc13 (homeobox C13)	-0.04
Timm8a1 (translocase of inner mitochondrial membrane 8A1)	1.73

More results follow.
Knock-down of Hsp90b1 (heat shock protein 90, beta (Grp94), member 1) gave: Tnf reporter robust z-score -1.34; fewer than 50 cells in well enough cells in well; active. Silencing of Or5p53 (olfactory receptor family 5 subfamily P member 53) resulted in: Tnf reporter robust z-score 0.17; fewer than 50 cells in well enough cells in well; inactive. Against Matr3 (matrin 3), the values are Tnf reporter robust z-score -0.41; fewer than 50 cells in well enough cells in well; inactive. Gpatch2 (G patch domain containing 2) showed Tnf reporter robust z-score -1.07; fewer than 50 cells in well enough cells in well; inactive. Silencing of Apc (APC, WNT signaling pathway regulator) resulted in: Tnf reporter robust z-score -1.3; fewer than 50 cells in well enough cells in well; active. Against Ip6k3 (inositol hexaphosphate kinase 3), the values are Tnf reporter robust z-score -0.74; fewer than 50 cells in well enough cells in well; inactive.
